Results from the supplement of paper PMC10849652.
Some of the results follow.

Amino acid sequences for entries named in this document (tags omitted). A change or cut given only in a name is not applied to a line headed by its entry.
UniProt P23434: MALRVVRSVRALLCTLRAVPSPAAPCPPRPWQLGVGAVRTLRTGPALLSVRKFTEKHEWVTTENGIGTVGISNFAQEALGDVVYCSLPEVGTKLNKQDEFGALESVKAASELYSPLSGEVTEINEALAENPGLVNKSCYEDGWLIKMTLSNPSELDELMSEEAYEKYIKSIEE
UniProt Q6ZNA5: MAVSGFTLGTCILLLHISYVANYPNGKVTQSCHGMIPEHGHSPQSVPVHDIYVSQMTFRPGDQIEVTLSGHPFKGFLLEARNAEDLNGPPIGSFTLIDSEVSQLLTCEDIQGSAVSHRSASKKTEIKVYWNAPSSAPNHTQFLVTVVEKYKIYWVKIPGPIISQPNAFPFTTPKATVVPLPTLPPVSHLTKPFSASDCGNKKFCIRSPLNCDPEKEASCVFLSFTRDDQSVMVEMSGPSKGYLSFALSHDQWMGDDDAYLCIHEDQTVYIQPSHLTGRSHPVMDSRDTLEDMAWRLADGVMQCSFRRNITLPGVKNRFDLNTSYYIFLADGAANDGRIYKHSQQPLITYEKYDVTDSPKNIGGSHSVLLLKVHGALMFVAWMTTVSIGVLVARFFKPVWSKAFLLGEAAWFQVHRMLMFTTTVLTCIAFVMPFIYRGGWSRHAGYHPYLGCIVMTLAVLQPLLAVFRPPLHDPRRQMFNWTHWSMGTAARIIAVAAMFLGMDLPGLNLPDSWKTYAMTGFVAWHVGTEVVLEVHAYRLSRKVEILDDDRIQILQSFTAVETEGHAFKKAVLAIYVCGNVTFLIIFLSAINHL
UniProt Q5SZK8: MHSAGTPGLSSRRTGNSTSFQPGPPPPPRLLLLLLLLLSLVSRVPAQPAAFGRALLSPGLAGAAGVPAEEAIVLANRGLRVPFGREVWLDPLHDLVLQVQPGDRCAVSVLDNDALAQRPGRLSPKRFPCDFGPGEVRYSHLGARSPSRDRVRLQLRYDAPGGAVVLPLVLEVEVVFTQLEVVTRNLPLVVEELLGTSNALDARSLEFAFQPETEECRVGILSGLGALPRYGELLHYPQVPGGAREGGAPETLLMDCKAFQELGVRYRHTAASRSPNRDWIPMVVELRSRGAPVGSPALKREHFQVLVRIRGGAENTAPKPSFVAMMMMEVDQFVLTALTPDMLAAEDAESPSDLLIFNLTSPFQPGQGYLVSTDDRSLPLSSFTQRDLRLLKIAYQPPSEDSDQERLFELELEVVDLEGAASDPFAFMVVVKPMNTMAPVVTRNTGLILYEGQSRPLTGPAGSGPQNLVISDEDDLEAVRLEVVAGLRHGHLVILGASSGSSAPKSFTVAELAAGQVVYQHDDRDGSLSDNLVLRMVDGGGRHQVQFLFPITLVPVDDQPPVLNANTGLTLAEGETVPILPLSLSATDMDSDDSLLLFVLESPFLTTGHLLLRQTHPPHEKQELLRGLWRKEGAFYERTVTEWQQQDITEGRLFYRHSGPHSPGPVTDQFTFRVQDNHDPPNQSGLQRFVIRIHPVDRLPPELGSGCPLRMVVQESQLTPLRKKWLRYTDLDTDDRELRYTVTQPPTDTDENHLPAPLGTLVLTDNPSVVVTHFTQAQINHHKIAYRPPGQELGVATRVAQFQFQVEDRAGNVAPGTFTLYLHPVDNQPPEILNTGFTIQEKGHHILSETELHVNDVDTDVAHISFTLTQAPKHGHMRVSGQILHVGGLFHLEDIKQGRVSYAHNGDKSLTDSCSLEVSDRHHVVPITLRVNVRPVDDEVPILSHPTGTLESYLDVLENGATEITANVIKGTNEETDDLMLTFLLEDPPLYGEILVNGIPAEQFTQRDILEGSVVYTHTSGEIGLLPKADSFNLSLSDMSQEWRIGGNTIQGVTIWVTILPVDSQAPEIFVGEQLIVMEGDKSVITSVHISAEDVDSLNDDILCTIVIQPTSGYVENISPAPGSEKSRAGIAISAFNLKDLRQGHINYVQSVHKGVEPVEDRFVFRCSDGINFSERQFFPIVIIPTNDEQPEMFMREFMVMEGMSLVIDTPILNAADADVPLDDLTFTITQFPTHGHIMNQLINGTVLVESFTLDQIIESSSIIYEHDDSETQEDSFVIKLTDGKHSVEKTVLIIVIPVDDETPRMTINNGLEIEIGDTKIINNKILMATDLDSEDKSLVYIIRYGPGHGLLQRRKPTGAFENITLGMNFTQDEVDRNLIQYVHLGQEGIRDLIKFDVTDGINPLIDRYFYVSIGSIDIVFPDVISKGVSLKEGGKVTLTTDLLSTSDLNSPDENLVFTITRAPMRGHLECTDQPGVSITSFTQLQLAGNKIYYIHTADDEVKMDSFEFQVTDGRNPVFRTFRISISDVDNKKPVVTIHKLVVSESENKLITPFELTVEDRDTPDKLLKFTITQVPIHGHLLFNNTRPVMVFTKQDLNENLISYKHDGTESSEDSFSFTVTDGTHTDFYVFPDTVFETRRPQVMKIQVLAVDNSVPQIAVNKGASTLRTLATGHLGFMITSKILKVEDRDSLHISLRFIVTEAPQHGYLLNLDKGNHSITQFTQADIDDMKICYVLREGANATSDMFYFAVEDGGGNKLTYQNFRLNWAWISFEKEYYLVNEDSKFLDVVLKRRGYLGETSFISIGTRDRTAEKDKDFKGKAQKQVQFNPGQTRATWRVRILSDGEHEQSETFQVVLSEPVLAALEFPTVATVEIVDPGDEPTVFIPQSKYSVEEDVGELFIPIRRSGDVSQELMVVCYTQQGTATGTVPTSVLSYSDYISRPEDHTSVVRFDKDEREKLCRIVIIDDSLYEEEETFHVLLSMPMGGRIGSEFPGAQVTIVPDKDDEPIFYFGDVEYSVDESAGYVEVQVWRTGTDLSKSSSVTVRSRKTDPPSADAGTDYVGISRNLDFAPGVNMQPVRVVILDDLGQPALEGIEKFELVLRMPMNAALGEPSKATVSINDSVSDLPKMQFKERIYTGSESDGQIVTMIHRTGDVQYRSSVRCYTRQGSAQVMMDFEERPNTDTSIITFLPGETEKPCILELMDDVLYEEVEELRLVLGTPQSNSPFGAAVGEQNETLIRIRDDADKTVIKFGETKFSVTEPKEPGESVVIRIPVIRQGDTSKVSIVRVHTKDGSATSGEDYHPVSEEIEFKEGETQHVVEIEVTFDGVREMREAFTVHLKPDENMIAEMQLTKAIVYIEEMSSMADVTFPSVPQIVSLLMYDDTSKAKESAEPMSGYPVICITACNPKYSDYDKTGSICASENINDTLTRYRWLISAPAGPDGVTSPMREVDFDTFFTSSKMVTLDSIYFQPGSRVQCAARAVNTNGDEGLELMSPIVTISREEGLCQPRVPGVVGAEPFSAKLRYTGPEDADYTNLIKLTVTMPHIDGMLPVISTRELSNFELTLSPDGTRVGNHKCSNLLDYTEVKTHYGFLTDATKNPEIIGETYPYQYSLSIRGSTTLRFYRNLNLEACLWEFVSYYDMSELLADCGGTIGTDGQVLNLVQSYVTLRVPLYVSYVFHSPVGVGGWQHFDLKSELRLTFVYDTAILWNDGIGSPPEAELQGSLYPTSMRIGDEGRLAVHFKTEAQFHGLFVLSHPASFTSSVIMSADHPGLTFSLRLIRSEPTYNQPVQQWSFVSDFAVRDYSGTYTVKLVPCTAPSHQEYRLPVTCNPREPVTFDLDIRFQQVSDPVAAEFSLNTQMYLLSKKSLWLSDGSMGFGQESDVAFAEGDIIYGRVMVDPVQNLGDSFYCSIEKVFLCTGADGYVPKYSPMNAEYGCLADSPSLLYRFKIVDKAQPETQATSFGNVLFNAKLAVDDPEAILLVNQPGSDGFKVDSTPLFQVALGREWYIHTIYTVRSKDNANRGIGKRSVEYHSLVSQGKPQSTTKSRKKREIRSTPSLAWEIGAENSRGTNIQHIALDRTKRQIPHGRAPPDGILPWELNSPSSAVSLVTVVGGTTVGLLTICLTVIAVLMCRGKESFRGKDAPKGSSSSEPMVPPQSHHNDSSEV
UniProt Q96AE4: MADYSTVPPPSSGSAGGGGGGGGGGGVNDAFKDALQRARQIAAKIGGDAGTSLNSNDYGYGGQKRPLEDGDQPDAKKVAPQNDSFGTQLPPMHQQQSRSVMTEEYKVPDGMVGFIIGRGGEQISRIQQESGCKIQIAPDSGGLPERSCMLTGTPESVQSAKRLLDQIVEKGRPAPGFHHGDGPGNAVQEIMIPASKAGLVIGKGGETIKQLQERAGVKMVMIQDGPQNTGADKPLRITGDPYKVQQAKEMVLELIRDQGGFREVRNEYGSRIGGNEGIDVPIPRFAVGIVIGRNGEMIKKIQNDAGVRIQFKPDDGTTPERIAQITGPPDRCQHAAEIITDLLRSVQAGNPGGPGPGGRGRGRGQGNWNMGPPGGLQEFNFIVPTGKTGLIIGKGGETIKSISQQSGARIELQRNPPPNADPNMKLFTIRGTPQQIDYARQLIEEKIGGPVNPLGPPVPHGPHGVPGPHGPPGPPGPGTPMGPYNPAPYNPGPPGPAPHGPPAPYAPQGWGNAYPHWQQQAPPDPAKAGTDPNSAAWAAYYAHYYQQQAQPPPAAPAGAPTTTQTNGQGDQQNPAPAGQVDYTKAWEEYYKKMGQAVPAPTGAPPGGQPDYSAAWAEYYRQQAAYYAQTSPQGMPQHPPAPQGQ
UniProt Q6NT46: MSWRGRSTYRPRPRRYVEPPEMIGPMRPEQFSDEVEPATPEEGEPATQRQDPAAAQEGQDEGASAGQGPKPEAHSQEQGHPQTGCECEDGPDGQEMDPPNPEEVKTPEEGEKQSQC
UniProt Q96C23: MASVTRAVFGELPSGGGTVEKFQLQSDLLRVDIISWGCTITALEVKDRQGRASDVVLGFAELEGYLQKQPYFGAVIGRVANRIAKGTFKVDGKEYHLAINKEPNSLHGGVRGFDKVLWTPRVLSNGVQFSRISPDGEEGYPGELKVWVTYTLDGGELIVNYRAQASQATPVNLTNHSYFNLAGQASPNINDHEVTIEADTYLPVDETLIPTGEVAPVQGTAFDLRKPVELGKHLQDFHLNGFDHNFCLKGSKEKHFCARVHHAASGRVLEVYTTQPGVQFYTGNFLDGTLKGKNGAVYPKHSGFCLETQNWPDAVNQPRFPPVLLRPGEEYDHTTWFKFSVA
UniProt P50395: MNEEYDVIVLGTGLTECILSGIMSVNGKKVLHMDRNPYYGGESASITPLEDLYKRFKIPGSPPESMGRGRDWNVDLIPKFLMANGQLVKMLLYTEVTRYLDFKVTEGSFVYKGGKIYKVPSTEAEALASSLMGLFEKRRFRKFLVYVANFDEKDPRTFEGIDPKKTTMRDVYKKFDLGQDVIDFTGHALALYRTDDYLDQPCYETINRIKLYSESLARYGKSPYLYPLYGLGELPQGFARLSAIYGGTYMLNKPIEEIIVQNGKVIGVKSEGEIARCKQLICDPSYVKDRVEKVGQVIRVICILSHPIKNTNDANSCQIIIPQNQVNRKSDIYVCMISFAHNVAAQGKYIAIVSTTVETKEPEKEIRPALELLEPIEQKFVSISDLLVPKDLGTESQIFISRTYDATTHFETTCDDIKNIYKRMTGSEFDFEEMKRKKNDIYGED
UniProt P85037: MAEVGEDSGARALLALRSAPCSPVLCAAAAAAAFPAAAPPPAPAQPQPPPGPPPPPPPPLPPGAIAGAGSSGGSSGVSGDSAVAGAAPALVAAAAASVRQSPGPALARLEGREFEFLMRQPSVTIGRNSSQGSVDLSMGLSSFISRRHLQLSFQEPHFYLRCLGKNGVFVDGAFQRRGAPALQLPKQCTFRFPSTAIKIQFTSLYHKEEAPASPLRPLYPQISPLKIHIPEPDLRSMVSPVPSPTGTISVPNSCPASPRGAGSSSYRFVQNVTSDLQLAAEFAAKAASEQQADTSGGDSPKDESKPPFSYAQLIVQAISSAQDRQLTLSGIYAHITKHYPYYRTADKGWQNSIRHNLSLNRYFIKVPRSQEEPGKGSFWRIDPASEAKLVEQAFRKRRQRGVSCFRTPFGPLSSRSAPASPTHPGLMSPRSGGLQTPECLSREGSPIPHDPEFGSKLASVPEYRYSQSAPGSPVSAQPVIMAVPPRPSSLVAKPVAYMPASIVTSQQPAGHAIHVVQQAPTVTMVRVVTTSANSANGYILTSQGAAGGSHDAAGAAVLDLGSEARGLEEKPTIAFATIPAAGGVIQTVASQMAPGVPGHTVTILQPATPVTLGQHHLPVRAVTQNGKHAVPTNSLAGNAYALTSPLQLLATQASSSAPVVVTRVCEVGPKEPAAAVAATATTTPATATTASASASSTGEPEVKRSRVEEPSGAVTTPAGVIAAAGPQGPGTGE
UniProt P19526, whole entry, looked up: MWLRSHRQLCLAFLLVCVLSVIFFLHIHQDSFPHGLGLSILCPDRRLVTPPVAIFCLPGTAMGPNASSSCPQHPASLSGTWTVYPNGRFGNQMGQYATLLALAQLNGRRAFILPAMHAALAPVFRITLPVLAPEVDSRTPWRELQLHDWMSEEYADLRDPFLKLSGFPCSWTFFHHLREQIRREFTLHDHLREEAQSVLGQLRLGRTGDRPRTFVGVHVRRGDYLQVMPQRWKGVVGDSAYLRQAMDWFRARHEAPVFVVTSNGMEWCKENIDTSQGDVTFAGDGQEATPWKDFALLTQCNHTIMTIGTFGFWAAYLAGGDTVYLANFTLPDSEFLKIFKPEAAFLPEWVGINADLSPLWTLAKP

What was measured:
Test in all cases: log2 fold change, soluble protein after heating vs DMSO (PISA); higher = thermal stabilisation; K562 lysate, 10 uM; active = over 0.2 and 3.5 SD of the protein, either way, in both replicates (recomputed)
[1] = compound: NCC(=O)Nc1ccc(-n2nc(C(F)(F)F)cc2-c2ccc3c(ccc4ccccc43)c2)cc1
Method in brief: (§1)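 To prepare the extract, K562 pellets were dounce-homogenised in PBS pH 7.4 with 1 mM MgCl2, giving crude material at 1 mg/mL protein. This was treated with 10 μM compound for 30 min, then heated in aliquots for 3 min over 48°C-58°C before pooling and addition of NP-40 to 0.5% at 4°C. Centrifugation at 21,000xg for 90 min left soluble protein in the supernatant, which TMTpro 16plex LC-MS/MS quantified with equalised channel sums. Results are log-two fold changes in thermal stability compared with solvent controls, from duplicates.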

vorinostat = compound: O=C(CCCCCCC(=O)Nc1ccccc1)NO [vorinostat]
Method in brief: as §1

silmitasertib = compound: O=C(O)c1ccc2c(c1)nc(Nc1cccc(Cl)c1)c1ccncc12 [silmitasertib]
Method in brief: as §1

[2] = compound: O=C1NC(=O)C(c2cnc3ccccn23)=C1c1cn2c3c(cc(F)cc13)CN(C(=O)N1CCCCC1)CC2
Method in brief: as §1

entospletinib = compound: c1cn2cc(-c3ccc4cn[nH]c4c3)nc(Nc3ccc(N4CCOCC4)cc3)c2n1 [entospletinib]
Method in brief: as §1

Measured: log2 fold change

GCSH (UniProt P23434)
inactive: [1] 0.032 | vorinostat 0.084 | silmitasertib 0.111 | [2] 0.033 | entospletinib 0.012

GAMT (UniProt Q14353)
inactive: [1] -0.046 | silmitasertib -0.008 | [2] -0.049 | entospletinib -0.001
active: vorinostat -0.423

FTO (UniProt Q9C0B1)
inactive: [1] 0.006 | vorinostat -0.03 | silmitasertib 0.041 | [2] 0.005 | entospletinib 0.006

GCHFR (UniProt P30047)
inactive: [1] -0.051 | vorinostat 0.04 | silmitasertib 0.019 | [2] -0.031 | entospletinib -0.068

FUBP3 (UniProt Q96I24)
active: vorinostat -0.325
inactive: [1] -0.001 | silmitasertib -0.032 | [2] 0.047 | entospletinib -0.065

GBA (UniProt P04062)
inactive: [1] 0.056 | vorinostat 0.053 | silmitasertib -0.042 | [2] 0.027 | entospletinib -0.058

FYN (UniProt P06241)
inactive: [1] -0.047 | vorinostat 0.091 | silmitasertib -0.001 | [2] -0.027 | entospletinib 0.156

GABARAPL1 isoform 2 (UniProt Q9H0R8)
inactive: [1] 0.065 | vorinostat 0.122 | silmitasertib -0.023 | [2] 0.037 | entospletinib 0.03

FUNDC2 (UniProt Q9BWH2)
inactive: [1] 0.024 | vorinostat 0.134 | silmitasertib -0.027 | [2] 0.018 | entospletinib 0.029

GDAP2 (UniProt Q9NXN4)
inactive: [1] 0.012 | vorinostat -0.278 | silmitasertib 0.035 | [2] -0.015 | entospletinib -0.016

FUNDC1 (UniProt Q8IVP5)
inactive: [1] 0.035 | vorinostat 0.113 | silmitasertib 0.003 | [2] 0.098 | entospletinib 0.066

FYCO1 isoform 4 (UniProt Q9BQS8)
inactive: [1] -0.002 | vorinostat -0.002 | silmitasertib 0.047 | [2] 0.033 | entospletinib -0.002

GGA1 isoform 6 (UniProt Q9UJY5)
inactive: [1] 0.029 | vorinostat 0.026 | silmitasertib 0.01 | [2] -0.006 | entospletinib 0.001

GABPB1 (UniProt Q06547)
active: vorinostat -0.299
inactive: [1] 0 | silmitasertib 0.008 | [2] -0.052 | entospletinib -0.004

FTH1 (UniProt P02794)
inactive: [1] -0.026 | vorinostat 0.068 | silmitasertib 0.013 | [2] -0.003 | entospletinib -0.038

GATD1 (UniProt Q8NB37)
inactive: [1] -0.02 | vorinostat 0.204 | silmitasertib -0.029 | [2] 0.033 | entospletinib 0.024

FOXO3 (UniProt O43524)
inactive: [1] 0.062 | vorinostat -0.398 | silmitasertib 0.073 | [2] -0.034 | entospletinib -0.09

GEMIN6 (UniProt Q8WXD5)
inactive: [1] -0.008 | vorinostat -0.071 | silmitasertib -0.012 | [2] 0.01 | entospletinib 0.007

FRRS1 (UniProt Q6ZNA5)
inactive: [1] 0.007 | vorinostat 0.125 | silmitasertib -0.022 | [2] -0.01 | entospletinib -0.012

FREM2 (UniProt Q5SZK8)
inactive: [1] 0.094 | vorinostat 0.048 | silmitasertib 0.085 | [2] -0.11 | entospletinib -0.003

FRYL (UniProt O94915)
inactive: [1] -0.023 | vorinostat -0.079 | silmitasertib 0.003 | [2] -0.005 | entospletinib 0.019

FYTTD1 (UniProt Q96QD9)
inactive: [1] -0.142 | vorinostat -0.064 | silmitasertib 0.008 | [2] 0.01 | entospletinib 0.01

FOXK2 (UniProt Q01167)
inactive: [1] 0.049 | vorinostat -0.125 | silmitasertib 0.02 | [2] -0.019 | entospletinib 0.001

Five entries drawn at random from those above:
FOXO3 (UniProt O43524)
inactive: [1] 0.062 | vorinostat -0.398 | silmitasertib 0.073 | [2] -0.034 | entospletinib -0.09

GEMIN6 (UniProt Q8WXD5)
inactive: [1] -0.008 | vorinostat -0.071 | silmitasertib -0.012 | [2] 0.01 | entospletinib 0.007

FYTTD1 (UniProt Q96QD9)
inactive: [1] -0.142 | vorinostat -0.064 | silmitasertib 0.008 | [2] 0.01 | entospletinib 0.01

FRRS1 (UniProt Q6ZNA5)
inactive: [1] 0.007 | vorinostat 0.125 | silmitasertib -0.022 | [2] -0.01 | entospletinib -0.012

GATD1 (UniProt Q8NB37)
inactive: [1] -0.02 | vorinostat 0.204 | silmitasertib -0.029 | [2] 0.033 | entospletinib 0.024

(cont.)

GALNT5 (UniProt Q7Z7M9)
inactive: [1] -0.016 | vorinostat 0.118 | silmitasertib 0.001 | [2] -0.052 | entospletinib 0.012

FUBP1 (UniProt Q96AE4)
inactive: [1] 0.018 | vorinostat -0.019 | silmitasertib 0.119 | [2] 0.116 | entospletinib 0.007

FUCA1 (UniProt P04066)
inactive: [1] 0.004 | vorinostat 0.111 | silmitasertib 0.024 | [2] -0.049 | entospletinib 0.027

GAGE2A (UniProt Q6NT46)
inactive: [1] 0.017 | vorinostat 0.132 | silmitasertib -0.105 | [2] -0.001 | entospletinib -0.154

GAA (UniProt P10253)
inactive: [1] -0.038 | vorinostat -0.176 | silmitasertib -0.092 | [2] -0.056 | entospletinib 0.068

GALM (UniProt Q96C23)
inactive: [1] 0.019 | vorinostat 0.02 | silmitasertib -0.007 | [2] 0.004 | entospletinib -0.053

GAR1 (UniProt Q9NY12)
inactive: [1] -0.009 | vorinostat 0.111 | silmitasertib 0.008 | [2] 0.027 | entospletinib 0.012

GABPB1 isoform 3 (UniProt Q06547)
inactive: [1] -0.012 | silmitasertib 0.08 | [2] 0.067 | entospletinib -0.024
active: vorinostat -0.41

GDI2 (UniProt P50395)
inactive: [1] 0 | vorinostat 0.111 | silmitasertib 0.004 | [2] 0.012 | entospletinib -0.004

FOXK1 (UniProt P85037)
inactive: [1] 0.022 | silmitasertib -0.026 | [2] -0.048 | entospletinib 0.038
active: vorinostat -0.414

GCLC (UniProt P48506)
inactive: [1] -0.022 | vorinostat -0.025 | silmitasertib 0.008 | [2] -0.034 | entospletinib -0.022

GCN1 (UniProt Q92616)
inactive: [1] 0.01 | silmitasertib 0.114 | [2] 0.033 | entospletinib -0.011
active: vorinostat -0.374

G6PD isoform 2 (UniProt P11413)
inactive: [1] 0.008 | silmitasertib -0.008 | [2] -0.003 | entospletinib 0.032
active: vorinostat -0.46

GALC (UniProt P54803)
inactive: [1] 0.027 | vorinostat -0.043 | silmitasertib -0.025 | [2] -0.073 | entospletinib -0.005

GFER (UniProt P55789)
inactive: [1] -0.04 | vorinostat 0.129 | silmitasertib -0.028 | [2] -0.04 | entospletinib -0.075

GBF1 (UniProt Q92538)
active: vorinostat -0.304
inactive: [1] -0.019 | silmitasertib 0.023 | [2] 0.043 | entospletinib 0.008

GALNT7 (UniProt H0YAH3)
inactive: [1] 0.151 | vorinostat -0.017 | silmitasertib -0.034 | entospletinib 0.025

FUT8 (UniProt Q9BYC5)
inactive: vorinostat 0.207 | silmitasertib -0.255 | entospletinib 0.074

GFOD2 (UniProt Q3B7J2)
inactive: [1] -0.092 | vorinostat 0.188 | silmitasertib 0.006 | entospletinib -0.191

GALNT3 (UniProt Q14435)
inactive: [2] 0.12 | entospletinib -0.1

FUT1 (UniProt P19526)
inactive: [2] 0.007

GFOD1 (UniProt Q9NXC2)
inactive: vorinostat -0.061 | silmitasertib -0.058

GALNT4 (UniProt Q8N4A0)
inactive: [1] 0.004 | [2] -0.149 | entospletinib -0.056

GDPD5 (UniProt Q8WTR4)
inactive: [1] -0.041 | [2] 0.085

GDE1 (UniProt Q9NZC3)
inactive: vorinostat -0.007 | silmitasertib 0.006 | [2] 0.04 | entospletinib -0.162

GEN1 (UniProt Q17RS7)
inactive: [1] -0.023 | [2] 0.188 | entospletinib -0.047

GEMIN7 (UniProt Q9H840)
inactive: [2] 0.068

GADD45A (UniProt P24522)
inactive: [2] 0.022

FUT4 (UniProt P22083)
inactive: [2] -0.194 | entospletinib 0.203

GATM (UniProt P50440)
inactive: entospletinib 0.458

GALNT10 (UniProt Q86SR1)
inactive: [1] -0.053 | vorinostat -0.017 | silmitasertib -0.36 | entospletinib -0.088

GABPB2 (UniProt Q8TAK5)
inactive: [2] -0.023 | entospletinib -0.134

FRAT1 (UniProt Q92837)
inactive: [1] -0.175 | entospletinib 0.072

GBA2 (UniProt Q9HCG7)
inactive: vorinostat -0.089 | silmitasertib -0.004 | [2] -0.091 | entospletinib -0.102

G3BP2 isoform 2 (UniProt Q9UN86)
inactive: [2] -0.103

GC isoform 3 (UniProt P02774)
inactive: [1] -0.058 | [2] 0.076 | entospletinib -0.053

GAB3 isoform 2 (UniProt Q8WWW8)
inactive: [2] -0.042 | entospletinib -0.062

GCA (UniProt P28676)
inactive: silmitasertib -0.104
active: vorinostat 1.36

FTSJ1 isoform 2 (UniProt Q9UET6)
inactive: [1] -0.109 | entospletinib 0.047
